Values quoted from earlier work in patent US8524665B2, “Use of secretin in treatments of disorders associated with the amygdala” (The McLean Hospital Corporation, priority 2003, dated 2013).
Part of at least one peptide drawing is inferred or uncertain, most often the ends. Some of these results come from one statement about several compounds together.

Test system: Tyrosine hydroxlyase (TH)
Settings: PC12 cells of the rat, cited from earlier work

## CC(C)C[C@H](NC(=O)CNC(=O)[C@H](CCC(N)=O)NC(=O)[C@H](CC(C)C)NC(=O)[C@H](CC(C)C)NC(=O)[C@H](CCCNC(=N)N)NC(=O)[C@H](CCC(N)=O)NC(=O)[C@H](CC(C)C)NC(=O)[C@H](CCCNC(=N)N)NC(=O)[C@H](C)NC(=O)CNC(=O)[C@H](CCC(=O)O)NC(=O)[C@H](CCCNC(=N)N)NC(=O)[C@H](CC(C)C)NC(=O)[C@H](CCCNC(=N)N)NC(=O)[C@H](CO)NC(=O)[C@H](CC(C)C)NC(=O)[C@H](CCC(=O)O)NC(=O)[C@H](CO)NC(=O)[C@@H](NC(=O)[C@H](Cc1ccccc1)NC(=O)[C@@H](NC(=O)CNC(=O)[C@H](CC(=O)O)NC(=O)[C@H](CO)NC(=O)[C@@H](N)Cc1c[nH]cn1)[C@@H](C)O)[C@@H](C)O)C(=O)N[C@H](C(N)=O)C(C)C [Secretin, secretin]
TH increase
  potency relative to VIP: three times more potent
  increase in TH concentration: 2 to 3 fold
